In the test the test system is T1, native di- and triheteromeric NMDARs composed of GluN1, GluN2A, and GluN2B subunits.
T1 construct: gene Grin1; native receptors in primary cultured cortical neurons (from fetal brains of 17-day pregnant rats, 10-14 days in culture); mixture of di- and triheteromers, heterotetramers with two GluN1 (known biology)
Kind of test: whole-cell patch clamp of cultured neurons, NMDA-elicited currents. The format is cell-based, Rattus norvegicus. The note with it: Na+ solution without Li+, 2 mM Ca2+, 100 μM NMDA + 30 μM glycine, -70 mV, pH 7.2-7.4, 22-25 °C; mode: open-channel block, Ca2+-independent. From the text:
whole-cell patch clamp of cultured neurons, NMDA-elicited currents on native di- and triheteromeric NMDARs composed of GluN1, GluN2A, and GluN2B subunits
Background: In patch-clamp work, channel activity is measured electrically.

Our source for the IC50 values is paper PMC9787943, “Calcium-Dependent Interplay of Lithium and Tricyclic Antidepressants, Amitriptyline and Desipramine, on N-methyl-D-aspartate Receptors” (International Journal of Molecular Sciences, 2022).

`CN(C)CCCN1c2ccccc2CCc2ccc(Cl)cc21` [Clomipramine]: the IC50 amounted to 72 ± 12 µM.

Usually IC50 stands for the midpoint of a concentration-inhibition curve.
